# In the supplement of paper PMC6411743:
# ± gives the standard deviation of the averaged measurements. The list shows a part of the results.
# Molecular target: T1, E9PGC5 and related entries (UniProt Q15262)
# T1 sequence (whole entry): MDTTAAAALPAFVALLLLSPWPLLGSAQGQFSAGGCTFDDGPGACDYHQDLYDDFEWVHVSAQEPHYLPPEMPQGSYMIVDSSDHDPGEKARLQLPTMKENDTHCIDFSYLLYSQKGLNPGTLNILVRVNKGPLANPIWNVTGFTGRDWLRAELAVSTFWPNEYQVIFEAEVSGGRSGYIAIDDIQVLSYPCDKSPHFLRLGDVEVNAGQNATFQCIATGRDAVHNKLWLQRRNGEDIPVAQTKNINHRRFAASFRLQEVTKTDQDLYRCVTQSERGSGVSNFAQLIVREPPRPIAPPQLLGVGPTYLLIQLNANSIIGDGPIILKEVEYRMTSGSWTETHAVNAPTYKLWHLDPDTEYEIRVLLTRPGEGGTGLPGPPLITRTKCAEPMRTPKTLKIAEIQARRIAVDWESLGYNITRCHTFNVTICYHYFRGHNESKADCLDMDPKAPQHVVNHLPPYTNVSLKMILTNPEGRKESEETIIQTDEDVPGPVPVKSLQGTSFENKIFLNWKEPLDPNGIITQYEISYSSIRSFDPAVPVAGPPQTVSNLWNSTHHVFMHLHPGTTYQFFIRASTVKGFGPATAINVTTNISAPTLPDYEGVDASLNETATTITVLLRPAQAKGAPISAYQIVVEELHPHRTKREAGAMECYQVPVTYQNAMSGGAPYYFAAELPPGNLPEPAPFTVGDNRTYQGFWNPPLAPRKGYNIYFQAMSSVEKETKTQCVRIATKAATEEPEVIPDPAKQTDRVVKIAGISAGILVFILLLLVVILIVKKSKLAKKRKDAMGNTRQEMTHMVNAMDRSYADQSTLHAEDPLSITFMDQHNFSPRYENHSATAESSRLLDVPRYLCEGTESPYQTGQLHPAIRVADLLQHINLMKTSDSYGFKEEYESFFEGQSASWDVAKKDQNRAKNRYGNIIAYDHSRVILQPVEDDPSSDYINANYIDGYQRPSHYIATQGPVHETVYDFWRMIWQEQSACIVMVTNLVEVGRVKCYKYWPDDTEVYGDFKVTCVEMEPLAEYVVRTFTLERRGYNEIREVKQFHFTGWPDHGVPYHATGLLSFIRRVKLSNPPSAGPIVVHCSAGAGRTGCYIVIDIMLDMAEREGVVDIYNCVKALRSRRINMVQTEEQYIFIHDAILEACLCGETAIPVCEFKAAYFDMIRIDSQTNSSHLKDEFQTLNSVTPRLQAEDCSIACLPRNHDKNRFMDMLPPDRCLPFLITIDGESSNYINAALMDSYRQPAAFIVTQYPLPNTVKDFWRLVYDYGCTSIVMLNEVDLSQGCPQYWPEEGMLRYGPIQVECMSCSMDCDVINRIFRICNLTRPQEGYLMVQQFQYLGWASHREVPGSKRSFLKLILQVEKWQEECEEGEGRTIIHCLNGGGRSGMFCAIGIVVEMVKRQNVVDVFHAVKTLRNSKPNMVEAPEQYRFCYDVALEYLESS
# Assay: NP40-soluble protein abundance relative to vehicle (solubility fold change) (ratio); higher = more soluble protein in presence of GTP
# Protocol: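 Solubility proteome profiling in Jurkat crude lysate. Lysate was treated with Mg-GTP (0.1-10 mM) for 10 min at room temperature and 3 min at 37 °C, then solubilised with 0.8% NP40 and benzonase, followed by ultracentrifugation. Proteins were quantified by TMT10 LC-MS/MS; the value is the NP40-soluble abundance relative to the NP40-processed vehicle, from 3 independent experiments.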
compound,measurement,setting,value
Nc1nc2c(ncn2[C@@H]2O[C@H](COP(=O)(O)OP(=O)(O)OP(=O)(O)O)[C@@H](O)[C@H]2O)c(=O)[nH]1 [guanosine triphosphate],NP40-soluble protein abundance,concentration: 0.1mM,0.9978 ± 0.0079
same,NP40-soluble protein abundance,concentration: 0.5mM,0.975 ± 0.018
same,NP40-soluble protein abundance,concentration: 1mM,0.992 ± 0.033
same,NP40-soluble protein abundance,concentration: 2mM,0.98 ± 0.035
same,NP40-soluble protein abundance,concentration: 4mM,0.978 ± 0.022
same,NP40-soluble protein abundance,concentration: 6mM,0.92 ± 0.023
same,NP40-soluble protein abundance,concentration: 8mM,0.958 ± 0.018
same,NP40-soluble protein abundance,concentration: 10mM,0.942 ± 0.021
